From patent US20260125362A1, “TARGETED PROTEIN DEGRADATION OF PARP14 FOR USE IN THERAPY” (AbbVie Biotechnology Ltd, priority 2019, published 2026)
Some results were stated once for a whole list of compounds, not compound by compound.

Amino acid sequences for entries named in this document (tags omitted).
UniProt Q460N5, whole entry: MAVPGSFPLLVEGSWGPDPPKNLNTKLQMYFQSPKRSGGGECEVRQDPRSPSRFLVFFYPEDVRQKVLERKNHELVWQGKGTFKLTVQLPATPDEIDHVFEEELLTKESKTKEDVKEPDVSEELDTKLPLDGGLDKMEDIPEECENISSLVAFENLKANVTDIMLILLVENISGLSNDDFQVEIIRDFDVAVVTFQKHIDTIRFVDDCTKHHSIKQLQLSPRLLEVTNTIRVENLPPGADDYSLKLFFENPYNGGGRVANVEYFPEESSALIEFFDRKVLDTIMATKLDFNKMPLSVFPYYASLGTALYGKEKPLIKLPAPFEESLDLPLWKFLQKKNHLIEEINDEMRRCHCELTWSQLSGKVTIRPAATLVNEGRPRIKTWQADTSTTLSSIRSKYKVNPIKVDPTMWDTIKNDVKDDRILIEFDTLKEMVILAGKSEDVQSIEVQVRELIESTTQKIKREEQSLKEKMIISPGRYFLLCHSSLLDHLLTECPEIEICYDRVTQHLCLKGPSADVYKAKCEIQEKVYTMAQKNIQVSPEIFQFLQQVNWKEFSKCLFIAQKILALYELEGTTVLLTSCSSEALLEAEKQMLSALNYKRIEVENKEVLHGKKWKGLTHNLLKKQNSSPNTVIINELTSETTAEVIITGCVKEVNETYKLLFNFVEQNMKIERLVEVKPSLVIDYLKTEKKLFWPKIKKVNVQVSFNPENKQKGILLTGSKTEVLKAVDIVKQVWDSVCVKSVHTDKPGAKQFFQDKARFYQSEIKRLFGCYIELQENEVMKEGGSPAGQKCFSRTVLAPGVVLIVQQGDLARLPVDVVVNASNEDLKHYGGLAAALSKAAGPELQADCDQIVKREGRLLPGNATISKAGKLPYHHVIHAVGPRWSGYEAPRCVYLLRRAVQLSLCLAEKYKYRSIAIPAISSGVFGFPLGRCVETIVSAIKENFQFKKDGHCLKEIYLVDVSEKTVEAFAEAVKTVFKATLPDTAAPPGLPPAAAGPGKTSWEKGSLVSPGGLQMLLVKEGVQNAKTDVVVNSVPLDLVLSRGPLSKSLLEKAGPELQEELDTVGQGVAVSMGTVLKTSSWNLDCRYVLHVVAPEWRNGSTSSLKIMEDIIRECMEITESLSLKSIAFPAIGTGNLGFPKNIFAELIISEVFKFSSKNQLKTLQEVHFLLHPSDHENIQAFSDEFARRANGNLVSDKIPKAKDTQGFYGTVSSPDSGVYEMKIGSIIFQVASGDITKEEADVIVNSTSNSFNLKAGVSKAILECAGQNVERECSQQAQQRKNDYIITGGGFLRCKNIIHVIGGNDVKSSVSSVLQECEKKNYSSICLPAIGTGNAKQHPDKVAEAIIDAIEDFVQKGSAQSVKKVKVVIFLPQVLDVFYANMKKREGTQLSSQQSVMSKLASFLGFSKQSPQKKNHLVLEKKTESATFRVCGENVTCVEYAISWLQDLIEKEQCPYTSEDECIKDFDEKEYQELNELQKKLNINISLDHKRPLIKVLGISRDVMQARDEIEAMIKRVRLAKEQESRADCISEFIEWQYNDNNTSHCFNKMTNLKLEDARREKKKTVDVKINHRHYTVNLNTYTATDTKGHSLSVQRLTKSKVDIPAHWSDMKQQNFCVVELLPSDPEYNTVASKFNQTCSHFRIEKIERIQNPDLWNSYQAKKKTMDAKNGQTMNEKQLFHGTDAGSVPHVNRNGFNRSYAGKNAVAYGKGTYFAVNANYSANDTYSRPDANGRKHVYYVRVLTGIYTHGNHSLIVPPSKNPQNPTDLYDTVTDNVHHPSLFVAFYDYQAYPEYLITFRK

Target: T1, PARP14 (Homo sapiens, UniProt Q460N5)
T1 construct: endogenous in cells; host or cells: KYSE270
Test: PARP14 degradation assay (Western blot) in KYSE270 cells
Assay type: cell-based
Settings: 24 h, 0.001-10 μM
Experimental: KYSE270 cells were seeded at a density of […] in 6-well plates and incubated overnight. Once attached, cells were treated with the compounds of Examples 1-4 at increasing concentrations (0.001 μM, 0.01 μM, 0.1 μM, 1 μM, and 10 μM; 0.003 μM, 0.03 μM, 0.3 μM, and 3 μM were also evaluated for the compound of Example 1), or with DMSO for 24 h. Media was gently aspirated and cells washed 3 times with 2 mL of ice cold PBS while on ice. The PBS was completely aspirated and 75 μl freshly prepared lysis buffer (Thermo Fisher 78501) was added to cells before scraping into the buffer. Lysates were collected in microcentrifuge tubes and incubated on ice for 15 minutes. Lysates were centrifuged at 10,000 rpm for 15 min at 4° C. and supernatants collected into fresh microcentrifuge tubes. Protein concentration was measured using a reducing agent compatible with the Pierce BCA Protein Assay Kit (Thermo Fisher 23250). Samples were prepared in loading buffer (LI-COR 928-40004) containing 5% β-mercaptoethanol, and incubated at 95° C. for 5 min. Protein lysates were resolved on 4-12% Tris-Acetate gels in MOPS running buffer with 60 μg of protein per well. Western blot transfers were done with PVDF membranes (LI-COR Immobilon) with 20 volts for 14 minutes. Primary antibodies (PARP14: in house generated mouse antibody (15A6 LotIC), β-actin: D6A8 (8457)) were incubated at 1:1,000 dilution using the odyssey blocking buffer (LI-COR 927-50000) for 2 h at room temperature and detected with secondary antibody (LI-COR 926-68072, 926-32211). Mouse antibody 15A6 Lot1C was generated by immunizing with recombinant human PARP14 catalytic domain protein. After hybridoma fusion, the parental clones were screened for reactivity against PARP14 catalytic domain, which were then subcloned to generate monoclones including 15A6-1. Monoclonal supernatants were tested by Western blotting against THP-1 and THP-1 PARP14 KO cells to confirm reactivity. The PARP14 antibody was produced by culturing the 15A6-1 hybridoma monoclone in 1L of serum free media+2% low IgG FBS. The antibody was purified from the culture media by protein G affinity chromatography.

| SMILES | depletion of PARP14 (Western blot) |
| --- | --- |
| O=C1CCC(N2C(=O)c3cccc(NCCC(=O)N[C@H]4CC[C@H](SCc5nc6cc(OCC7CCOCC7)cc(F)c6c(=O)[nH]5)CC4)c3C2=O)C(=O)N1 (stereo partly shown) [Example 4, 3-((2-(2,6-dioxopiperidin-3-yl)-1,3-dioxoisoindolin-4-yl)amino)-N-((1r,4r)-4-(((5-fluoro-4-oxo-7-((tetrahydro-2H-pyran-4-yl)methoxy)-3,4-dihydroquinazolin-2-yl)methyl)thio)cyclohexyl)propanamide] | dose dependent depletion of PARP14 |
| O=C(CN1CCC(SCc2nc3cc(NC4CCCC4)cc(F)c3c(=O)[nH]2)CC1)NCCCCCCNc1cccc2c1C(=O)N(C1CCC(=O)NC1=O)C2=O.O=C(O)C(F)(F)F (stereo not shown) [Example 1, 2-(4-(((7-(Cyclopentylamino)-5-fluoro-4-oxo-3,4-dihydroquinazolin-2-yl)methyl)thio)piperidin-1-yl)-N-(6-((2-(2,6-dioxopiperidin-3-yl)-1,3-dioxoisoindolin-4-yl)amino)hexyl)acetamide trifluoroacetate] | dose dependent depletion of PARP14 |
| Cc1ncsc1-c1ccc(CNC(=O)[C@@H]2C[C@@H](O)CN2C(=O)[C@@H](NC(=O)CCCCCCNC(=O)CN2CCC(SCc3nc4cc(NC5CCCC5)cc(F)c4c(=O)[nH]3)CC2)C(C)(C)C)cc1 [Example 2, (2S,4R)-1-((S)-2-(7-(2-(4-(((7-(cyclopentylamino)-5-fluoro-4-oxo-3,4-dihydroquinazolin-2-yl)methyl)thio)piperidin-1-yl)acetamido)heptanamido)-3,3-dimethylbutanoyl)-4-hydroxy-N-(4-(4-methylthiazol-5-yl)benzyl)pyrrolidine-2-carboxamide] | dose dependent depletion of PARP14 |
| O=C1CCC(N2C(=O)c3cccc(NCCCCCCCC(=O)N[C@H]4CC[C@H](SCc5nc6cc(OCC7CCOCC7)cc(F)c6c(=O)[nH]5)CC4)c3C2=O)C(=O)N1 (stereo partly shown) [Example 3, 8-((2-(2,6-dioxopiperidin-3-yl)-1,3-dioxoisoindolin-4-yl)amino)-N-((1r,4r)-4-(((5-fluoro-4-oxo-7-((tetrahydro-2H-pyran-4-yl)methoxy)-3,4-dihydroquinazolin-2-yl)methyl)thio)cyclohexyl)octanamide] | dose dependent depletion of PARP14 |
